Patent publication US5681691A, “Photographic element containing an improved pyrazolotriazole coupler” (Eastman Kodak Company, priority 1996, dated 1997)

Assay: Coupler wandering in multilayer coatings (cross-section, optical microscope)
Details: blue and red layer exposure only, C-41 at pH 10
Description: The formulas for the multilayer organic components are provided following the examples. The multilayer format used was an ISO 200 speed format (designated ML-A).
Coupler wandering (solution of the coupler at the high pH of the developer and diffusion into another imaging layer) was determined by giving the multilayer coatings a stepped exposure of the blue and red layers only (no exposure of the green layer) and processing using standard C-41 conditions at pH 10 as previously described in the application. These coatings were then cross-sectioned and examined by optical microscope. Since there was no green exposure, no magenta dye should be formed (except for fog). If the magenta coupler wanders, then magenta dye will be visible in the yellow (blue light sensitive) or cyan (red light sensitive) layers. Table 5 contains the wandering test results as well as the normalized green pH sensitivities of gamma (calculated as described above).

SMILES	Wandering
CCCCCCCCCCCCC(c1n[nH]c2c(Cl)c(C)nn12)N(CCCCCCCC)C(=O)CCC(=O)O (stereo not shown) [Mag C-1]	No
CCCCCCCCCCCCCCCC(=O)N(c1cccc(C(=O)O)c1)C(C)c1n[nH]c2c(Cl)c(C)nn12 (stereo not shown) [Mag C-10]	Yes
CCCCCCCCCCCCCCCCCC(=O)N(c1cccc(C(=O)O)c1)C(C)c1n[nH]c2c(Cl)c(C)nn12 (stereo not shown) [Mag C-11]	Yes
CCCCCC(=O)N(c1cccc(C(=O)O)c1)C(C)c1n[nH]c2c(Cl)c(C)nn12 (stereo not shown) [Mag C-15]	Yes
CCCCCCCCCCCCCCCCCCCCCC(=O)N(c1cccc(C(=O)O)c1)C(C)c1n[nH]c2c(Cl)c(C)nn12 (stereo not shown) [Mag-1]	No
CCCCCCCCCCCCCCCc1cccc(OC(CCCC)C(=O)N(c2cccc(C(=O)O)c2)C(C)c2n[nH]c3c(Cl)c(C)nn23)c1 (stereo not shown) [Mag-7]	No
CCCCCCCCCCCCCCCCCCCCCC(=O)N(c1cccc(C(=O)O)c1)C(CC)c1n[nH]c2c(Cl)c(C)nn12 (stereo not shown) [Mag-11]	No
